Experimental data from US20230348447A1, “OXAZOLIDINONE COMPOUNDS, LIPOSOME COMPOSITIONS COMPRISING OXAZOLIDINONE COMPOUNDS AND METHOD OF USE THEREOF” (priority 2020, published 2023).
Where two headings read alike, the source gives them in different places.

Tested on: mitochondrial protein synthesis (COX-1/SDH-A ratio) in H9C2 rat heart myoblast cells
Assay: Mitochondrial protein synthesis inhibition (MitoBiogenesis in-cell ELISA, COX-1/SDH-A)
Assay type: cell-based
[1] = MPS IC50 divided by MIC in H37Rv

SMILES	SI-MPS MPS/H37 [1]	SI-MPS MPS/H37
Cl.Cl.NCCn1nnc(-c2ccc(-c3ccc(N4C[C@H](CN)OC4=O)cc3F)cn2)n1 [AKG-29]	32.80	
Cn1nnc(-c2ccc(-c3ccc(N4C[C@H](CO)OC4=O)cc3F)cn2)n1 [Tedizolid, reference compound]		0.57
CCN(CC)CCCn1nnc(-c2ccc(-c3ccc(N4C[C@H](CNC(C)=O)OC4=O)cc3F)cn2)n1 [AKG-40]	0.13	
CCN(CC)CCn1nnc(-c2ccc(-c3ccc(N4C[C@H](CNC(C)=O)OC4=O)cc3F)cn2)n1 [AKG-39]	0.12	
CN(C)CCn1nnc(-c2ccc(-c3ccc(N4C[C@H](CN)OC4=O)cc3F)cn2)n1.Cl [AKG-28]		27.41
Cl.NCCn1nnnc1-c1ccc(-c2ccc(N3C[C@H](CO)OC3=O)cc2F)cn1 [AKG-22]	2.37	
Cl.Cn1nnc(-c2ccc(-c3ccc(N4C[C@H](CN)OC4=O)cc3F)cn2)n1 [AKG-3]		1.91
